Measurements published in patent US20240218022A1, “ANTI-VISTA MACROCYCLIC PEPTIDES AND COMPOSITIONS” (BRISTOL-MYERS SQUIBB COMPANY, priority 2022, published 2024).
Read-outs that look alike come from different tables or passages of the source. For at least one compound, name, drawing or mass did not settle the structure. Starred links: 1 amine or outer side, 2 acyl side, 3 side chain; linkers in the order of their positions; H or OH if unused. Positions of bridges follow the written chain, without caps; N, C: chain ends. Non-standard residues stand in square brackets, D forms with d. Residues, ends and D or L forms follow the SMILES beside them. Phe(4-COOH) = N[C@@H](Cc1ccc(C(=O)O)cc1)C(=O)O; Phe(3-Me) = Cc1cccc(C[C@H](N)C(=O)O)c1; γGlu = O=C(O)[C@H](CCC(=O)[*:2])N[*:1]; 2Nal = N[C@@H](Cc1ccc2ccccc2c1)C(=O)O; βAsp = O=C(O)[C@H](CC(=O)[*:2])N[*:1]; Cit = NC(=O)NCCC[C@H](N)C(=O)O; NMeL = CN[C@@H](CC(C)C)C(=O)O; Ahp(2) = CCCCC[C@H](N)C(=O)O; NMeNle = CCCC[C@H](NC)C(=O)O; Tle = CC(C)(C)[C@H](N)C(=O)O; NMeS = CN[C@@H](CO)C(=O)O; NHexGly = CCCCCCNCC(=O)O; Nle = CCCC[C@H](N)C(=O)O; Orn = NCCC[C@H](N)C(=O)O; Aun = NCCCCCCCCCCC(=O)O; AEEA = NCCOCCOCC(=O)O

Target: T1, mouse VISTA (mVISTA) (Mus musculus, UniProt Q9D659)
T1 construct: expressed in transfected cells; host or cells: Human embryonic kidney 293T cells
T1 sequence (Q9D659 33-308): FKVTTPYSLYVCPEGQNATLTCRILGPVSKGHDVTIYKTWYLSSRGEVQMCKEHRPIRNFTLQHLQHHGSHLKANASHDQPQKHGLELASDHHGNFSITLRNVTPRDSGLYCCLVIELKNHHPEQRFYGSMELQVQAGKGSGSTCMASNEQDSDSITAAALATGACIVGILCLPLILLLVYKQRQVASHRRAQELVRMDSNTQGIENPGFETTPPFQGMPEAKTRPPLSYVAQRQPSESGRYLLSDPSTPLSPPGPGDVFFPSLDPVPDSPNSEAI
Assay: Cell-Based Binding High-Content Assay For mVISTA (HC CBA mVISTA)
Summary of the method: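 Competition of compound with a biotinylated peptide (final 2 nM, 30 min at RT) for binding to mVISTA on 293T cells, run under no-wash or wash (1 h compound preincubation then removal) formats. Readout by Alexa 647–streptavidin imaging on a high-content platform; four-parameter logistic fit gave IC50.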

[1] = cell-based binding high-content assay, mVISTA, read-out: HC CBA miPr ISTA IC50

SMILES	IC50 (read-out: HC CBA mVISTA IC50) [nM]	IC50 [1] [nM]
CCCCCCN1CC(=O)N[C@@H](Cc2ccc(O)cc2)C(=O)N[C@@H](CC(C)C)C(=O)N[C@@H](CC(=O)O)C(=O)N[C@@H](CCCN)C(=O)N(C)[C@@H](CCCC)C(=O)N[C@@H](CCCCC)C(=O)N2CCC[C@H]2C(=O)N[C@@H](C(C)(C)C)C(=O)N[C@@H](CC(N)=O)C(=O)N[C@H](C(=O)NCCOCCOCC(=O)N[C@@H](CC(=O)NCCOCCOCC(=O)NCCCCCCCCCCC(=O)O)C(=O)O)CSCC(=O)N[C@@H](Cc2ccccc2)C(=O)N[C@@H](Cc2c[nH]c3ccccc23)C(=O)N[C@@H](CC(=O)O)C1=O [Example 2210] ({CH2CO}-FWD[NHexGly]YLD[Orn][NMeNle][Ahp(2)]P[Tle]NC[AEEA][βAsp][AEEA][Aun]-OH; thioether N-14)	19.4	
CCCCCCN1CC(=O)N[C@@H](Cc2ccc(O)cc2)C(=O)N[C@@H](CCCC)C(=O)N[C@@H](CC(N)=O)C(=O)N[C@@H](CCCNC(=N)N)C(=O)N(C)[C@@H](CC(C)C)C(=O)N[C@@H](CCCCC)C(=O)N2CCC[C@H]2C(=O)N[C@@H](C(C)C)C(=O)N[C@@H](CO)C(=O)N[C@H](C(=O)N[C@@H](CC(=O)NCCOCCOCC(=O)NCCCCCCCCCCC(=O)O)C(=O)O)CSCC(=O)N[C@@H](Cc2ccc3ccccc3c2)C(=O)N[C@@H](Cc2ccc(O)cc2)C(=O)N[C@@H](CC(=O)O)C1=O [Example 2162] ({CH2CO}-[2Nal]YD[NHexGly]Y[Nle]NR[NMeL][Ahp(2)]PVSC[βAsp][AEEA][Aun]-OH; thioether N-14)	19	

Continued, values first:

IC50 (read-out: HC CBA mVISTA IC50) [nM]	IC50 [1] [nM]	SMILES
	20.5	CCCCCCN1CC(=O)N[C@@H](Cc2ccc(O)cc2)C(=O)N[C@@H](CCCC)C(=O)N[C@@H](CC(N)=O)C(=O)N[C@@H](CCCNC(N)=O)C(=O)N(C)[C@@H](CC(C)C)C(=O)N[C@@H](CCCCC)C(=O)N2CCC[C@H]2C(=O)N[C@@H](C(C)C)C(=O)N[C@@H](CC(=O)O)C(=O)N[C@H](C(=O)NCC(=O)NCCOCCOCC(=O)N[C@@H](CC(=O)O)C(=O)NCCOCCOCC(=O)NCCCCCCCCCCC(=O)O)CSCC(=O)N[C@@H](Cc2ccccc2)C(=O)N[C@@H](Cc2c[nH]c3ccccc23)C(=O)N[C@@H](CC(=O)O)C1=O [compound 2015] ({CH2CO}-FWD[NHexGly]Y[Nle]N[Cit][NMeL][Ahp(2)]PVDCG[AEEA]D[AEEA][Aun]-OH; thioether N-14)
	40.6	CCCCCCN1CC(=O)N[C@@H](Cc2ccc(O)cc2)C(=O)N[C@@H](CC(C)C)C(=O)N[C@@H](CC(N)=O)C(=O)N[C@@H](CCCN)C(=O)N(C)[C@@H](CO)C(=O)N[C@@H](CCCCC)C(=O)N2CCC[C@H]2C(=O)N[C@@H](C(C)(C)C)C(=O)N[C@@H](CO)C(=O)N[C@H](C(=O)N[C@@H](CC(=O)NCCOCCOCC(=O)N[C@@H](CC(=O)O)C(=O)NCCOCCOCC(=O)NCCCCCCCCCCC(=O)O)C(=O)O)CSCC(=O)N[C@@H](Cc2ccc(C(=O)O)cc2)C(=O)N[C@@H](Cc2c[nH]c3ccccc23)C(=O)N[C@@H](CC(=O)O)C1=O [compound 2051] ({CH2CO}-[Phe(4-COOH)]WD[NHexGly]YLN[Orn][NMeS][Ahp(2)]P[Tle]SC[βAsp][AEEA]D[AEEA][Aun]-OH; thioether N-14)
11.3		CCCCCCN1CC(=O)N[C@@H](Cc2ccc(O)cc2)C(=O)N[C@@H](CCCC)C(=O)NCC(=O)N[C@@H](CCCNC(=N)N)C(=O)N[C@@H](CC(C)C)C(=O)N[C@@H](CCCCC)C(=O)N2CCC[C@H]2C(=O)N[C@@H](C(C)C)C(=O)N[C@@H](CC(=O)O)C(=O)N[C@H](C(=O)NCC(=O)N[C@@H](CCC(=O)NCCOCCOCC(=O)N[C@@H](CC(=O)O)C(=O)NCCOCCOCC(=O)NCCCCCCCCCCC(=O)O)C(=O)O)CSCC(=O)N[C@@H](Cc2cccc(C)c2)C(=O)N[C@@H](Cc2ccc(O)cc2)C(=O)N[C@@H](CC(=O)O)C1=O [compound 2124] ({CH2CO}-[Phe(3-Me)]YD[NHexGly]Y[Nle]GRL[Ahp(2)]PVDCG[γGlu][AEEA]D[AEEA][Aun]-OH; thioether N-14)
